Some of the results follow.
Experiments:
Assay in all cases: log2 fold change, soluble protein after heating vs DMSO (PISA); higher = thermal stabilisation; K562 cells, 10 uM, 30 min; active = over 0.2 and 3.5 SD of the protein, either way, in both replicates (recomputed)
bafetinib = compound: Cc1ccc(NC(=O)c2ccc(CN3CC[C@H](N(C)C)C3)c(C(F)(F)F)c2)cc1Nc1nccc(-c2cncnc2)n1 [bafetinib]
Method in brief: (§1)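 Aliquots of K562 cells (2×10^6 cells/mL) treated with 10 μM compound for 30 min were heated for 3 min over 48°C-58°C. After pooling and extraction in PBS with 0.5% NP-40 at 4°C, soluble protein from a 21,000xg, 90 min spin was quantified by TMTpro 16plex LC-MS/MS with channel sums equalised. Thermal stability is expressed against control samples, from duplicates, as a log2 fold change.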

Chains of the proteins cited; added tags and fusions are not shown. Lines headed by an entry give the natural chain unless they say otherwise; changes in a name come on top.
UniProt P18754: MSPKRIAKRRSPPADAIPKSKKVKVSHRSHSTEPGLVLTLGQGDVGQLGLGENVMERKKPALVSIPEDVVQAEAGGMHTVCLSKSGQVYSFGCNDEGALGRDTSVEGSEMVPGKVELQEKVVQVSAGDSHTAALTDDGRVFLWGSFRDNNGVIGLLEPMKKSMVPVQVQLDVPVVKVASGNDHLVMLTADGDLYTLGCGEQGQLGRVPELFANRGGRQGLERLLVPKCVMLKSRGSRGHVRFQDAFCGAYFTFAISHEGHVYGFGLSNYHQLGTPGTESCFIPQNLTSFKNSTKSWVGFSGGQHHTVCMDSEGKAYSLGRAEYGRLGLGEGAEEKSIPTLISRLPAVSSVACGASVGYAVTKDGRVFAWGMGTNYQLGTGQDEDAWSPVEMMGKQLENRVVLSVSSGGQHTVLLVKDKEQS
UniProt Q5TA31: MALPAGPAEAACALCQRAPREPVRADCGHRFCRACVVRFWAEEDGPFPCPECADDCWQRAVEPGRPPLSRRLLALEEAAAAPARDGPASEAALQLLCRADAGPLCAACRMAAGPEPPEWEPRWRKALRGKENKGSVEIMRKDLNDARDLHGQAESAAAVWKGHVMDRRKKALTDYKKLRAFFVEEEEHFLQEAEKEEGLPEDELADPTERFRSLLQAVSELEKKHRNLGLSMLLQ
UniProt Q14257: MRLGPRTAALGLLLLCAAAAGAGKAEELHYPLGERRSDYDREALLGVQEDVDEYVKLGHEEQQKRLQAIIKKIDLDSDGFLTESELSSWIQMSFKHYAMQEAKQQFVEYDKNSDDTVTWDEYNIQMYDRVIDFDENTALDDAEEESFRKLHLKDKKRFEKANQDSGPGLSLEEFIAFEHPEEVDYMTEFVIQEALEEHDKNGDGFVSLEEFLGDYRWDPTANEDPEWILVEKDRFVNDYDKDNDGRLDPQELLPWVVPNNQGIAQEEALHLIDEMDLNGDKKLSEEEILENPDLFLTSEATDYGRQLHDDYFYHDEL
UniProt P08134, whole entry, looked up: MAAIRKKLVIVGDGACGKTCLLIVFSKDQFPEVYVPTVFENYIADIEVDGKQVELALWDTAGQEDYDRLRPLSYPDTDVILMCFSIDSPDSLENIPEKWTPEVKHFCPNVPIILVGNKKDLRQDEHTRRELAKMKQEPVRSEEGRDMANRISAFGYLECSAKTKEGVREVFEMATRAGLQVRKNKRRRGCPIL
UniProt Q96D15: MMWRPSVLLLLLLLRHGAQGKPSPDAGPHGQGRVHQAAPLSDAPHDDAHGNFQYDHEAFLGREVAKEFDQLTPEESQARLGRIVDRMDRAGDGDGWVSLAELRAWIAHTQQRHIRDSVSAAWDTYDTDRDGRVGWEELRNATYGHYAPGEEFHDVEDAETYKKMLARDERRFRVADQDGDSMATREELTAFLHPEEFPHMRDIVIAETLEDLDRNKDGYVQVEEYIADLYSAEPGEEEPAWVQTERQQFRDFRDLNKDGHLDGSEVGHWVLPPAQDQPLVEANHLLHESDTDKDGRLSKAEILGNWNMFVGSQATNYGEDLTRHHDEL
UniProt Q13546: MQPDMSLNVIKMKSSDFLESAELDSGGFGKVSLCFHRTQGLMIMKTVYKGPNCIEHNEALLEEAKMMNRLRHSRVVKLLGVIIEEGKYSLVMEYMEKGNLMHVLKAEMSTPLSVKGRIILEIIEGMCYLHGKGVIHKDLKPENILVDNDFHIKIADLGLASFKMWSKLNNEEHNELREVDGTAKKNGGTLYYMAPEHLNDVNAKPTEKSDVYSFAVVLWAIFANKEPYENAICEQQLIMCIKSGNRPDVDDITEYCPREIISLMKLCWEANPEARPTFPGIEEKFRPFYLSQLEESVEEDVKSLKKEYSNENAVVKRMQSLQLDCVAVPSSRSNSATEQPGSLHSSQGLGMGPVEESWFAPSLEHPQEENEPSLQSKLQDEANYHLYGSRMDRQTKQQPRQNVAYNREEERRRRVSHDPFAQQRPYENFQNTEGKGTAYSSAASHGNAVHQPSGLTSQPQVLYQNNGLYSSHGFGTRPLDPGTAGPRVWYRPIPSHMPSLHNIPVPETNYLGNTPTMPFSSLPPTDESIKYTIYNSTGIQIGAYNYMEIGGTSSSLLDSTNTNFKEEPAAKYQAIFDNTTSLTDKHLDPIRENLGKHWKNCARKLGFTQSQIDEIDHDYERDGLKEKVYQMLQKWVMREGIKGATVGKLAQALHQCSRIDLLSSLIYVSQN
UniProt P40938, whole entry, looked up: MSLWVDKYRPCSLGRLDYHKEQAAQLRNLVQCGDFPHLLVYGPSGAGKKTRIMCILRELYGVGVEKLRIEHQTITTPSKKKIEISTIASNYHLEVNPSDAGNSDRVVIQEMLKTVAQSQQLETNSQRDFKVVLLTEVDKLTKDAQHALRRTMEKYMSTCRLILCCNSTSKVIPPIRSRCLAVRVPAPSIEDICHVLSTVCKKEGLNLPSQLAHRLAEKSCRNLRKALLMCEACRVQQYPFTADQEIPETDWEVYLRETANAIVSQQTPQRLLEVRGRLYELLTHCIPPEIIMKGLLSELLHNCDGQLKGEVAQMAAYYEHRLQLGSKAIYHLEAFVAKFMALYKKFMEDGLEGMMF
UniProt Q9UKL0, whole entry, looked up: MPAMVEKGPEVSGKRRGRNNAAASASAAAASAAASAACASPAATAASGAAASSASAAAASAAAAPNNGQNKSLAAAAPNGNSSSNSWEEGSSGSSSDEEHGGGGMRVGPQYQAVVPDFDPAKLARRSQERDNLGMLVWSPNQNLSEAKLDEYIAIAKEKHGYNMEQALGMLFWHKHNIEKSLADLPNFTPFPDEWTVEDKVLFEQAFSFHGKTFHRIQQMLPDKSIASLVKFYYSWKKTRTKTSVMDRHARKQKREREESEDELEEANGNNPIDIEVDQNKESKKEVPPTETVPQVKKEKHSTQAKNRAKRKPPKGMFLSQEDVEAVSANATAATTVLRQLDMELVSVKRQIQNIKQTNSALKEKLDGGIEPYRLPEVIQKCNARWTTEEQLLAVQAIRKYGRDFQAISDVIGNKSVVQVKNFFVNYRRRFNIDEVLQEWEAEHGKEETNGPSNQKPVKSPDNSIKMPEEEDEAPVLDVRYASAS
UniProt P38159: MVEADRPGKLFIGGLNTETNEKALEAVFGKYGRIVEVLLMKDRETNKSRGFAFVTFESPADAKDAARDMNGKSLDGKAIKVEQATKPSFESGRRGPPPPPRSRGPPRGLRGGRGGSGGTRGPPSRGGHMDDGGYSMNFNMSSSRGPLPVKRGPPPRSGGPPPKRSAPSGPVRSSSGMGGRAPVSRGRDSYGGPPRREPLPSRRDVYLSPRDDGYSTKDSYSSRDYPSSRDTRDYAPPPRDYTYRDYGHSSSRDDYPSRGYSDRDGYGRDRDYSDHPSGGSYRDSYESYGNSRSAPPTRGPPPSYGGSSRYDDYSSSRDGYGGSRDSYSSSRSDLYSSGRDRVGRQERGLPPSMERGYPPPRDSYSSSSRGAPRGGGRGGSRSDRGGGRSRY
UniProt Q8IZV5: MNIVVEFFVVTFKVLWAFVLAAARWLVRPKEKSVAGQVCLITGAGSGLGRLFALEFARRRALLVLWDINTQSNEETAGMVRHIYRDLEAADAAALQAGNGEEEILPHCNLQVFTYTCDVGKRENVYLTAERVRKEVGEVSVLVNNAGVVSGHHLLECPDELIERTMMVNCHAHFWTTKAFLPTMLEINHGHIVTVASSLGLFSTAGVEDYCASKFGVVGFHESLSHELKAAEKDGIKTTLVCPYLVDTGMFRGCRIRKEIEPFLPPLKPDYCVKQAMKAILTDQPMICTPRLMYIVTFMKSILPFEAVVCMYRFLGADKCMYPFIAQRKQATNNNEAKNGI
UniProt Q5VTR2, whole entry, looked up: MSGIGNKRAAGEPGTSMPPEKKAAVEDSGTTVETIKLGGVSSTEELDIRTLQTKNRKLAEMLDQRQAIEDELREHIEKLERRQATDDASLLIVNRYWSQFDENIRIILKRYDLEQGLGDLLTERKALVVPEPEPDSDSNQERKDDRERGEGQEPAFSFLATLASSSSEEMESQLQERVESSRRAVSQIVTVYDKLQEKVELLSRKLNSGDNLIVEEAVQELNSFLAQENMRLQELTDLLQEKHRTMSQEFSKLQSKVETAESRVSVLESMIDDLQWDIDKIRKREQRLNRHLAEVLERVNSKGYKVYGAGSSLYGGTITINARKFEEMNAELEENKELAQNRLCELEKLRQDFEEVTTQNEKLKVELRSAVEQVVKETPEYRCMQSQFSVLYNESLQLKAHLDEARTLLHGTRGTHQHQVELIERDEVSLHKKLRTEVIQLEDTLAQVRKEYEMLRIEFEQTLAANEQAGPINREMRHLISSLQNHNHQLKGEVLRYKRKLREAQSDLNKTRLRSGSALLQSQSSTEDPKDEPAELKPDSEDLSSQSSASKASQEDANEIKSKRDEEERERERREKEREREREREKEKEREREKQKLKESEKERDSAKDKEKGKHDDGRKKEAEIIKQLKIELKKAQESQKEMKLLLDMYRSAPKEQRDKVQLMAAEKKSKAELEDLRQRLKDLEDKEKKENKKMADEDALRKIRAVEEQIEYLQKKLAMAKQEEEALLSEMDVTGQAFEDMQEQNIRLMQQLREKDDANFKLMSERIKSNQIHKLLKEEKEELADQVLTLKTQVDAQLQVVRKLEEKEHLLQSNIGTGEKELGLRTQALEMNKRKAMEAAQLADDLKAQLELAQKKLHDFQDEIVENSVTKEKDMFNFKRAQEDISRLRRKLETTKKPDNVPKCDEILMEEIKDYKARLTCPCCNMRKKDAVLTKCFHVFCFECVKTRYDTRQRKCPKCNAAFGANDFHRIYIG
UniProt Q96TC7: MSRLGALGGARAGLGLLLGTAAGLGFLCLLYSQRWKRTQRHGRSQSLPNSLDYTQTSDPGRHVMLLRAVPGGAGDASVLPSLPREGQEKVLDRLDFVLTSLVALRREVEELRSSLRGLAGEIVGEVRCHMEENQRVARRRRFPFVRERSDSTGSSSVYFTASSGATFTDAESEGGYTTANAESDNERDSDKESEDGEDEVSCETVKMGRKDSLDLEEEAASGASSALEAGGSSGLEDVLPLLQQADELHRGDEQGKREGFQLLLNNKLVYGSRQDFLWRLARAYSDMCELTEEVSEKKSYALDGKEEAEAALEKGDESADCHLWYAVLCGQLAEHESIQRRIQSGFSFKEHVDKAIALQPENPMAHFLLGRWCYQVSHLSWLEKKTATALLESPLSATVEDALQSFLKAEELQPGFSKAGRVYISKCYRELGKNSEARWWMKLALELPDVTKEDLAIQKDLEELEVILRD
UniProt Q8TC12: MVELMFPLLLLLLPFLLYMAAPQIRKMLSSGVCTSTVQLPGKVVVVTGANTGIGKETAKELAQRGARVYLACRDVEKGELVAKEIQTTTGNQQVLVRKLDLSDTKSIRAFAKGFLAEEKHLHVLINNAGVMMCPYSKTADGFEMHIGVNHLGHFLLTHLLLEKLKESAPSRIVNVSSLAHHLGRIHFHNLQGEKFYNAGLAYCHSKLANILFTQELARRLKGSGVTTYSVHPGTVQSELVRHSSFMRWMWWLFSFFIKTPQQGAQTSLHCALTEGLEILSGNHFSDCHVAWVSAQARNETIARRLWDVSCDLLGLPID
UniProt Q8TDP1: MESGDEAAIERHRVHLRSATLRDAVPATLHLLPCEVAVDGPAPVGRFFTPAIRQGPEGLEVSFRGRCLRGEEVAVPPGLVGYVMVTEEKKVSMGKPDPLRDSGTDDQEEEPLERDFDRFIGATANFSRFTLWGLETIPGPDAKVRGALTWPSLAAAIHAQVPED
UniProt Q96PM5: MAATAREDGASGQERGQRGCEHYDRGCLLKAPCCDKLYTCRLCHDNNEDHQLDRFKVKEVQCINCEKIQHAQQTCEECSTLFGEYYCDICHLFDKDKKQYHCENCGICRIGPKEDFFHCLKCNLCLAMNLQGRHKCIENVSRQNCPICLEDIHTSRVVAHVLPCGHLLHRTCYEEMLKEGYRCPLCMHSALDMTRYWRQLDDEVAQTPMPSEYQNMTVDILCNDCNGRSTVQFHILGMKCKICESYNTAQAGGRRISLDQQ
UniProt P35241, whole entry, looked up: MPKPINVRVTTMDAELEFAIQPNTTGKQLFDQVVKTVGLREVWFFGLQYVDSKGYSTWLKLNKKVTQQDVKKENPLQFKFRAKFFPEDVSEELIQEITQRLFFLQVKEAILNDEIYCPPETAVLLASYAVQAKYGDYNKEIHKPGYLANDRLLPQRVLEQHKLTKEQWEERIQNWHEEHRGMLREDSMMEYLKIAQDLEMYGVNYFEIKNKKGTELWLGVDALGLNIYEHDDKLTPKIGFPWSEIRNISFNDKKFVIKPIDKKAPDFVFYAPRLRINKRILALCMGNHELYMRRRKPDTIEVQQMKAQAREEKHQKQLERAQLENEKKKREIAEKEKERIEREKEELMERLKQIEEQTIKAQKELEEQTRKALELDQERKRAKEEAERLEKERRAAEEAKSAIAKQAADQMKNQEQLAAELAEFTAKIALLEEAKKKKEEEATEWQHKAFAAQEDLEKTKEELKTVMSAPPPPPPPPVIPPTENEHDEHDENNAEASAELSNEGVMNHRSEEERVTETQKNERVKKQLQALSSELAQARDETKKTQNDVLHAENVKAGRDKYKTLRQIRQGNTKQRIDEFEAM

[1] = compound: Cc1cccc(CC(=O)N2CCc3c2ccc(-c2cn(C)c4ncnc(N)c24)c3F)n1
Method in brief: as §1

nilotinib = compound: Cc1cn(-c2cc(NC(=O)c3ccc(C)c(Nc4nccc(-c5cccnc5)n4)c3)cc(C(F)(F)F)c2)cn1 [nilotinib]
Method in brief: as §1

[2] = compound: Cc1nc(Nc2n[nH]c3c2CN(C(=O)N[C@H](CN(C)C)c2ccccc2)C3(C)C)c2sccc2n1
Method in brief: as §1

dasatinib = compound: Cc1nc(Nc2ncc(C(=O)Nc3c(C)cccc3Cl)s2)cc(N2CCN(CCO)CC2)n1 [dasatinib]
Method in brief: as §1

[3] = compound: Cc1ncc(-c2ccnc(Nc3ccc(S(C)(=O)=O)cc3)n2)n1C(C)C
Method in brief: as §1

[4] = compound: Cn1cc(-c2ccc3c(c2)CCN3C(=O)Cc2cccc(C(F)(F)F)c2)c2c(N)ncnc21
Method in brief: as §1

[5] = compound: Cn1cc(-c2ccc3nnc(C(F)(F)c4ccc5ncccc5c4)n3n2)cn1
Method in brief: as §1

tipifarnib = compound: Cn1cncc1[C@@](N)(c1ccc(Cl)cc1)c1ccc2c(c1)c(-c1cccc(Cl)c1)cc(=O)n2C [tipifarnib]
Method in brief: as §1

mubritinib = compound: FC(F)(F)c1ccc(/C=C/c2nc(COc3ccc(CCCCn4ccnn4)cc3)co2)cc1 [mubritinib]
Method in brief: as §1

Measured: log2 fold change

REEP6 (UniProt Q96HR9)
inactive: bafetinib -0.072 | [1] -0.112 | nilotinib -0.025 | [2] 0.026 | dasatinib 0.082 | [3] -0.062 | [4] 0.085 | [5] 0.165 | tipifarnib -0.057 | mubritinib -0.017

RCC1 isoform 2 (UniProt P18754)
inactive: bafetinib 0.013 | [1] 0.002 | nilotinib 0.069 | [2] -0.137 | dasatinib -0.159 | [3] 0 | [4] 0.139 | [5] -0.004 | tipifarnib -0.112 | mubritinib 0.296

RNF126 (UniProt Q9BV68)
inactive: bafetinib -0.106 | [1] 0.005 | nilotinib -0.007 | [2] -0.009 | dasatinib 0.06 | [3] -0.014 | [4] 0.038 | [5] -0.07 | tipifarnib -0.077 | mubritinib 0.004

RBM8A (UniProt Q9Y5S9)
inactive: bafetinib -0.013 | [1] -0.014 | nilotinib -0.047 | [2] -0.063 | dasatinib 0.001 | [3] 0.126 | [4] -0.02 | [5] 0.065 | tipifarnib 0.019 | mubritinib 0.013

RNF187 (UniProt Q5TA31)
inactive: bafetinib 0.009 | [1] 0.088 | nilotinib 0.029 | [2] -0.041 | dasatinib 0.022 | [3] -0.001 | [4] -0.105 | [5] 0.006 | tipifarnib -0.07 | mubritinib 0.102

RCN2 isoform 2 (UniProt Q14257)
inactive: bafetinib 0.018 | [1] -0.028 | nilotinib 0.051 | [2] 0 | dasatinib 0.044 | [3] -0.021 | [4] -0.029 | [5] 0.012 | tipifarnib 0.076 | mubritinib -0.063

RCC1L (UniProt Q96I51)
inactive: bafetinib -0.028 | [1] -0.003 | nilotinib -0.002 | [2] 0.003 | dasatinib 0.031 | [3] 0.01 | [4] 0.029 | [5] -0.005 | tipifarnib -0.026 | mubritinib -0.01

RHOT2 (UniProt Q8IXI1)
inactive: bafetinib -0.018 | [1] -0.029 | nilotinib -0.073 | [2] 0.074 | dasatinib -0.098 | [3] 0.023 | [4] 0.021 | [5] -0.029 | tipifarnib -0.076 | mubritinib 0.007

RHOC (UniProt P08134)
inactive: bafetinib -0.021 | [1] -0.013 | nilotinib 0.035 | [2] 0.014 | dasatinib 0.025 | [3] -0.01 | [4] 0.006 | [5] -0.02 | tipifarnib -0.02 | mubritinib 0.021

RCN3 (UniProt Q96D15)
active: [1] -0.318
inactive: bafetinib -0.015 | nilotinib 0.015 | [2] -0.011 | dasatinib 0.045 | [3] 0.011 | [4] 0.162 | [5] 0.057 | tipifarnib -0.038 | mubritinib -0.056

RIPK1 (UniProt Q13546)
active: [1] 1.12 | [3] 1.18 | [4] 1.49
inactive: bafetinib 0.209 | nilotinib -0.007 | [2] -0.196 | dasatinib 0.197 | [5] -0.052 | tipifarnib -0.121 | mubritinib -0.089

RHAG (UniProt Q02094)
inactive: bafetinib 0.047 | [1] 0.017 | nilotinib -0.042 | [2] -0.007 | dasatinib 0.054 | [3] 0.045 | [4] -0.026 | [5] 0.001 | tipifarnib -0.079 | mubritinib 0.083

RFC3 (UniProt P40938)
inactive: bafetinib -0.035 | [1] 0.049 | nilotinib -0.016 | [2] -0.017 | dasatinib -0.032 | [3] -0.011 | [4] 0.053 | [5] -0.01 | tipifarnib -0.051 | mubritinib 0.045

RCOR1 (UniProt Q9UKL0)
inactive: bafetinib 0.011 | [1] 0.021 | nilotinib -0.034 | [2] -0.107 | dasatinib -0.063 | [3] -0.062 | [4] -0.005 | [5] 0.033 | tipifarnib -0.087 | mubritinib 0.07

RBMX (UniProt P38159)
inactive: bafetinib 0.149 | [1] -0.051 | nilotinib 0 | [2] 0.111 | dasatinib 0.204 | [3] 0.093 | [4] -0.201 | [5] -0.173 | tipifarnib 0.177 | mubritinib -0.187

RCOR3 isoform 3 (UniProt Q9P2K3)
inactive: bafetinib 0.023 | [1] 0.039 | nilotinib -0.019 | [2] 0.001 | dasatinib -0.09 | [3] -0.022 | [4] -0.056 | [5] 0.006 | tipifarnib -0.119 | mubritinib 0.09

RDH10 (UniProt Q8IZV5)
active: dasatinib 0.237 | [4] 0.37
inactive: bafetinib -0.031 | [1] 0.15 | nilotinib 0.051 | [2] -0.032 | [3] -0.014 | [5] 0.183 | tipifarnib 0.028 | mubritinib 0.106

REEP4 (UniProt Q9H6H4)
inactive: bafetinib 0.021 | [1] 0.127 | nilotinib -0.017 | [2] -0.077 | dasatinib -0.079 | [3] 0.067 | [4] -0.052 | [5] -0.056 | tipifarnib -0.109 | mubritinib -0.04

RBM4 (UniProt Q9BWF3)
inactive: bafetinib -0.049 | [1] -0.01 | nilotinib -0.047 | [2] -0.095 | dasatinib -0.033 | [3] -0.039 | [4] -0.054 | [5] -0.063 | tipifarnib -0.013 | mubritinib -0.082

RCN1 (UniProt Q15293)
inactive: bafetinib -0.075 | [1] -0.08 | nilotinib 0.007 | [2] 0.006 | dasatinib 0.032 | [3] -0.046 | [4] 0.002 | [5] 0.02 | tipifarnib 0.02 | mubritinib -0.019

RMC1 (UniProt Q96DM3)
inactive: bafetinib -0.043 | [1] 0.072 | nilotinib -0.032 | [2] -0.047 | dasatinib -0.063 | [3] -0.082 | [4] 0.03 | [5] -0.016 | tipifarnib 0.045 | mubritinib 0.012

RNF20 (UniProt Q5VTR2)
inactive: bafetinib 0.171 | [1] -0.214 | nilotinib -0.158 | [2] -0.03 | dasatinib 0.029 | [3] -0.017 | [4] 0.066 | [5] 0.108 | tipifarnib -0.011 | mubritinib 0.128

Nine neighbouring entries from above, for reference:
RIPK1 (UniProt Q13546)
active: [1] 1.12 | [3] 1.18 | [4] 1.49
inactive: bafetinib 0.209 | nilotinib -0.007 | [2] -0.196 | dasatinib 0.197 | [5] -0.052 | tipifarnib -0.121 | mubritinib -0.089

RHAG (UniProt Q02094)
inactive: bafetinib 0.047 | [1] 0.017 | nilotinib -0.042 | [2] -0.007 | dasatinib 0.054 | [3] 0.045 | [4] -0.026 | [5] 0.001 | tipifarnib -0.079 | mubritinib 0.083

RFC3 (UniProt P40938)
inactive: bafetinib -0.035 | [1] 0.049 | nilotinib -0.016 | [2] -0.017 | dasatinib -0.032 | [3] -0.011 | [4] 0.053 | [5] -0.01 | tipifarnib -0.051 | mubritinib 0.045

RCOR1 (UniProt Q9UKL0)
inactive: bafetinib 0.011 | [1] 0.021 | nilotinib -0.034 | [2] -0.107 | dasatinib -0.063 | [3] -0.062 | [4] -0.005 | [5] 0.033 | tipifarnib -0.087 | mubritinib 0.07

RBMX (UniProt P38159)
inactive: bafetinib 0.149 | [1] -0.051 | nilotinib 0 | [2] 0.111 | dasatinib 0.204 | [3] 0.093 | [4] -0.201 | [5] -0.173 | tipifarnib 0.177 | mubritinib -0.187

RCOR3 isoform 3 (UniProt Q9P2K3)
inactive: bafetinib 0.023 | [1] 0.039 | nilotinib -0.019 | [2] 0.001 | dasatinib -0.09 | [3] -0.022 | [4] -0.056 | [5] 0.006 | tipifarnib -0.119 | mubritinib 0.09

RDH10 (UniProt Q8IZV5)
active: dasatinib 0.237 | [4] 0.37
inactive: bafetinib -0.031 | [1] 0.15 | nilotinib 0.051 | [2] -0.032 | [3] -0.014 | [5] 0.183 | tipifarnib 0.028 | mubritinib 0.106

REEP4 (UniProt Q9H6H4)
inactive: bafetinib 0.021 | [1] 0.127 | nilotinib -0.017 | [2] -0.077 | dasatinib -0.079 | [3] 0.067 | [4] -0.052 | [5] -0.056 | tipifarnib -0.109 | mubritinib -0.04

RBM4 (UniProt Q9BWF3)
inactive: bafetinib -0.049 | [1] -0.01 | nilotinib -0.047 | [2] -0.095 | dasatinib -0.033 | [3] -0.039 | [4] -0.054 | [5] -0.063 | tipifarnib -0.013 | mubritinib -0.082

(cont.)

RMDN3 (UniProt Q96TC7)
inactive: bafetinib -0.013 | [1] 0.026 | nilotinib -0.011 | [2] -0.03 | dasatinib -0.048 | [3] -0.044 | [4] 0.02 | [5] 0.018 | tipifarnib 0.018 | mubritinib 0.015

RCC2 (UniProt Q9P258)
inactive: bafetinib -0.029 | [1] 0.028 | nilotinib -0.013 | [2] 0.006 | dasatinib -0.053 | [3] -0.013 | [4] 0.043 | [5] 0.018 | tipifarnib -0.065 | mubritinib 0.039

RDH11 (UniProt Q8TC12)
inactive: bafetinib -0.119 | [1] -0.048 | nilotinib 0.099 | [2] -0.112 | dasatinib -0.079 | [3] -0.03 | [4] 0.015 | [5] -0.022 | tipifarnib 0.059 | mubritinib -0.033

RNASEH2C (UniProt Q8TDP1)
inactive: bafetinib 0.039 | [1] 0.044 | nilotinib -0.055 | [2] -0.02 | dasatinib -0.16 | [3] -0.059 | [4] 0.103 | [5] 0.024 | tipifarnib -0.12 | mubritinib 0.092

RCHY1 (UniProt Q96PM5)
inactive: bafetinib -0.083 | [1] 0.074 | nilotinib -0.052 | [2] 0.004 | dasatinib 0.054 | [3] -0.026 | [4] -0.034 | [5] 0.002 | tipifarnib -0.054 | mubritinib -0.03

REEP5 (UniProt Q00765)
inactive: bafetinib -0.061 | [1] -0.043 | nilotinib -0.004 | [2] 0.007 | dasatinib 0.06 | [3] -0.049 | [4] 0.02 | [5] 0 | tipifarnib 0.107 | mubritinib 0.026

RBM38 (UniProt Q9H0Z9)
inactive: bafetinib -0.047 | [1] 0.011 | nilotinib -0.028 | [2] -0.013 | dasatinib 0.004 | [3] -0.013 | [4] 0.17 | [5] 0.212 | tipifarnib -0.071 | mubritinib 0.029

RDX (UniProt P35241)
inactive: bafetinib 0.03 | [1] -0.066 | nilotinib 0.02 | [2] -0.001 | dasatinib 0.069 | [3] 0.012 | [4] 0.006 | [5] -0.026 | tipifarnib -0.009 | mubritinib 0.011
